Measured values from patent US4686229A, “1,4-dihydropyridines” (Bayer Aktiengesellschaft, priority 1984, dated 1987).
For at least one compound, name, drawing or mass did not settle the structure.

Tested on: TXA2 synthesis
Assay: 3H-arachidonic acid metabolism in washed human platelets (inhibition of the TXA2 synthesis)
Format: cell-based
Settings: 2 min preincubation at 37° C., then 10 min with 3H-arachidonic acid, range of the minimum effective concentration

For `CC1=C(C(=O)OCc2cccnc2)C(c2ccc(C(=O)O)cc2)C(C(=O)OCc2cccnc2)=C(C)N1` [Example 7, Di-(pyrid-3-yl)-methyl 4-(4-carboxyphenyl)-1,4-dihydro-2,6-dimethyl-pyridine-3,5-dicarboxylate], the “Limiting concentration for inhibition (inhibition of the TXA2 synthesis)” value was 10-3.
